{"source": "patent US8927063B2", "about": "“Compositions for the treatment of timber and other wood substrates” (TimTechChem International Limited, priority 2008, dated 2015)", "experiment": "Example 3: solubility and formulation stability in ester solvents", "conditions": "formulation studies", "method": "Further formulation tests were carried out to ascertain if the fungicide IPBC (iodo propyl butyl carbamate, CAS No 55406-53-6) was soluble in ester compounds of formula (I).", "note": "At least one read-out could not be matched to a standard name with certainty."}
{"smiles": "CCCC1COC(Cn2cncn2)(c2ccc(Cl)cc2Cl)O1", "note": "(stereo not shown) [propiconazole]", "values": [{"measurement": "solubilisation in the esters of the invention", "value": "good solubilisation"}]}
